For some assays here: One purity is given for all peptides; the source may state it once.

Series [1] can be described thus: general procedure: Fmoc solid-phase peptide synthesis; 2-Cl-Trt resin (degree of substitution 0.5 mmol/g). The note with it: whole synthesis; for final HPLC purity: HPLC area integration.
Series [2] in a line: general procedure: Fmoc solid-phase peptide synthesis; 2-Cl-Trt resin. The note with it: whole synthesis, scale 0.5 mmol.
Where [3] appears, read: scale of the general procedure 0.5 mmol.
The mark [4] stands for this setting: on 0.5 mmol 2-Cl-Trt resin used, scale 0.5 mmol.
Where [5] appears, read: calculated on the basis of 0.5 mmol 2-Cl-Trt resin used, scale of the general procedure 0.5 mmol.

In series [1], “3-oxooctanoyl-Dab-Thr-Dab-ring(4-10) [Dab-Dab-D-Phe-Lue--Dab-Dab-Thr]” gave a crude mass of 540 mg and an isolated mass of 245 mg. For the same substance, in series [1] (setting [3]), the “final HPLC purity” value is given as over 99.0% and the crude yield came to 89.8%. The same substance had an isolated yield in series [1] (setting [4]) of 40.7%.
The corresponding values for “4-phenoxybenzoyl-Dab-Thr-Dab-ring (4-10) [Dab-Dab-D-Phe-Lue-Dab-Dab-Thr]” are 570 mg, 280 mg, over 99.0%, 90.5% and 44.5%.
In series [1], “6-methoxyhexanoyl-Dab-Thr-Dab-ring(4-10) [Dab-Dab-D-Phe-Lue-Dab-Dab-Thr]” came in with a crude mass of 530 mg and an isolated mass of 238 mg. Moreover, in series [1] (setting [3]), the “final HPLC purity” value was over 99.0% and the crude yield was 89.0%. Besides, the isolated yield in series [1] (setting [4]) is 40.0%.
The matching figures for “(S)-6-methyloctanoyl-Dab-Thr-Dab-ring (4-10) [Dab-Dab-D-Phe(4-Cl)-Lue-Dab-Dab-Thr]”: 560 mg, 250 mg, over 99.0%, 90.5% and 40.4%.
For the substance “(S)-6-methyloctanoyl-Dab-Thr-Dab-ring(4-10) [Dab-Dab-D-Phe(4-CH3)-Lue-Dab-Dab-Thr]”, in series [1], the crude mass is 550 mg and the isolated mass is 250 mg. Moreover, in series [1] (setting [3]), the “final HPLC purity” value is given as over 99.0% and the crude yield was determined as 90.3%. This substance had an isolated yield in series [1] (setting [4]) of 41.1%.
The corresponding values for “N, N-dimethylaminovaleryl-Dab-Thr-Dab-ring(4-10) [Dab-Dab-D-Phe-Lue-Dab-Dab-Thr]” are 530 mg, 240 mg, over 99.0%, 89.1% and 40.3%.
The corresponding values for “Octanoyl-Dab-Thr-D-Dab-ring(4-10) [Dab-Dab-D-Leu-Thr-Dab-Dab-Thr]” are 520 mg, 248 mg, over 99.0%, 91.0% and 43.4%.
In series [1], “Octanoyl-Dab-Thr-D-Ser-Ring(4-10) [Dab-Dab-D-Leu-Thr-Dab-Dab-Thr]” had a crude mass of 510 mg and an isolated mass of 230 mg. In addition, in series [1] (setting [3]), the “final HPLC purity” value is on record as over 99.0% and the crude yield is given as 90.2%. Moreover, the isolated yield in series [1] (setting [4]) was 40.7%.
Substance “Octanoyl-Dab-Thr-D-Ser-ring(4-10) [Dab-Dab-D-Phe--Thr-Dab-Dab-Thr]” had an isolated mass in series [1] of 240 mg. For the same substance, in series [1] (setting [3]), the “final HPLC purity” value is on record as over 99.0% and the crude yield worked out at 91.0%. For the same substance, in series [1] (setting [5]), the isolated yield is on record as 41.2%. This substance also gave a crude mass in series [2] of 530 mg.
In series [1], “Octanoyl-Dab-Thr-Dab-rin(4-10) [Dab-Dab-D-Phe-Leu-Dab-Dab-Thr]” gave a crude mass of 540 mg and an isolated mass of 240 mg. Moreover, in series [1] (setting [3]), the “final HPLC purity” value was over 99.0% and the crude yield is 90.8%. In addition, in series [1] (setting [4]), the isolated yield is reported as 40.4%.
The corresponding values for “Octanoyl-Dab-Thr-Dab-ring(4-10) [Dab-Dab-D-Leu-Leu-Dab-Dab-Thr]” are 540 mg, 240 mg, over 99.0%, 93.5% and 41.5%.
Take “Octanoyl-Dab-Thr-Dab-ring(4-10) [Dab-Dab-D-Leu-Thr--Dab-Dab-Thr]”: in series [1], the crude mass came out at 525 mg and the isolated mass amounted to 250 mg. Also, in series [1] (setting [3]), the “final HPLC purity” value is listed as over 99.0% and the crude yield came to 91.8%. Besides, in series [1] (setting [4]), the isolated yield was found to be 43.7%.
For the substance “octanoyl-Dab-Thr-Dab-ring(4-10) [Dab-Dab-D-Phe-Leu--Dab-Dab-Leu]”, the isolated mass in series [1] is 250 mg. In series [1] (setting [3]), the “final HPLC purity” value is reported as over 99.0% and the crude yield was 91.6%. Also, the isolated yield in series [1] (setting [5]) is listed as 41.6%. In series [2], this substance registered a crude mass of 550 mg.
